{"source": "PubChem BioAssay AID248", "about": "(DTP/NCI, 2004)", "system": "L1210 leukemia ip in BDF1 mice, survival T/C", "experiment": "NCI In Vivo Anticancer Drug Screen. Data for tumor model L1210 Leukemia (intraperitoneal) in B6D2F1 (BDF1) mice", "settings": "T/C endpoint: mean survival time, higher T/C = longer survival", "key": {"[1]": {"settings": "dose: 75.0 mg/kg/injection, schedule: Q01DX001 (ip), vehicle: saline"}, "[2]": {"settings": "dose: 150.0 mg/kg/injection, schedule: Q01DX001 (ip), vehicle: saline"}, "[3]": {"settings": "dose: 300.0 mg/kg/injection, schedule: Q01DX001 (ip), vehicle: saline"}, "[4]": {"settings": "dose: 200.0 mg/kg/injection, schedule: Q04DX003 (ip), vehicle: saline"}, "[5]": {"settings": "dose: 400.0 mg/kg/injection, schedule: Q04DX003 (ip), vehicle: saline"}, "[6]": {"settings": "dose: 200.0 mg/kg/injection, schedule: Q01DX001 (ip), vehicle: saline"}, "[7]": {"settings": "dose: 400.0 mg/kg/injection, schedule: Q04DX003 (ip), vehicle: saline with Tween-80"}, "[8]": {"settings": "dose: 300.0 mg/kg/injection, schedule: Q01DX001 (ip), vehicle: other"}, "[9]": {"settings": "dose: 400.0 mg/kg/injection, schedule: Q01DX001 (ip), vehicle: Klucel (hydroxypropylcellulose) (HPC)"}, "[10]": {"settings": "dose: 200.0 mg/kg/injection, schedule: Q01DX009 (ip), vehicle: Klucel (hydroxypropylcellulose) (HPC)"}}, "note": "The list is a part of this screen's results and no random one: it gathers tests that were run many times, whatever their T/C, doses with no T/C, and many T/C values between a quarter and a half above the control. Other doses and runs of a compound stand elsewhere. T/C: endpoint of the treated group in % of that of the vehicle group. Some doses have a count of surviving animals in place of a T/C: the source files T/C as zero there, which appears to mark a toxic dose or a test without result, not a measured value. Some doses without a T/C left all or most animals alive at the check, yet need not have been tolerated: the source hardly ever lists a survival T/C far under the control, and the zero likely stands for such cases as well. Survivors were counted at the toxicity check, usually on the fifth day, unless a day is given; later deaths do not show. Schedules are NCI's codes, taken here to give the interval after Q, in days (D) or hours (H), and the number of doses after X. Where survival is the endpoint, the PubChem record calls one and a half times the control and up active, and a quarter to a half above the control has no call in these data; cut-offs in other NCI protocols can differ.", "data": [{"smiles": "OCC1C2CCC(C2)C1c1ccccc1", "note": "(stereo not drawn)", "values": [{"measurement": "survivor count", "setting": "dose: 18.75 mg/kg/injection, schedule: Q01DX001 (ip), vehicle: saline", "value": "0 of 6"}, {"measurement": "survivor count", "setting": "dose: 37.5 mg/kg/injection, schedule: Q01DX001 (ip), vehicle: saline", "value": "1 of 6"}, {"measurement": "survivor count", "setting": "[1]", "value": "0 of 6"}, {"measurement": "survivor count", "setting": "[2]", "value": "0 of 6"}, {"measurement": "survivor count", "setting": "[3]", "value": "0 of 6"}]}, {"smiles": "[N-]=[N+]=Nc1c2ccccc2nc2ccccc12", "values": [{"measurement": "survivor count", "setting": "dose: 10.0 mg/kg/injection, schedule: Q01DX001 (ip), vehicle: saline", "value": "0 of 6"}, {"measurement": "survivor count", "setting": "dose: 20.0 mg/kg/injection, schedule: Q01DX001 (ip), vehicle: saline", "value": "0 of 6"}, {"measurement": "survivor count", "setting": "dose: 40.0 mg/kg/injection, schedule: Q01DX001 (ip), vehicle: saline", "value": "0 of 6"}, {"measurement": "survivor count", "setting": "[1]", "value": "2 of 6"}, {"measurement": "survivor count", "setting": "[2]", "value": "2 of 6"}, {"measurement": "survivor count", "setting": "[3]", "value": "2 of 6"}]}, {"smiles": "COc1cc(CN(C)C2CCCCC2)cc(OC)c1OC", "values": [{"measurement": "survivor count", "setting": "[4]", "value": "4 of 4"}, {"measurement": "survivor count", "setting": "[5]", "value": "0 of 4"}]}, {"smiles": "CCCCCC(/C=N/NC(=O)c1cccc2ccccc12)=C\\c1ccccc1", "values": [{"measurement": "survivor count", "setting": "[6]", "value": "3 of 4"}]}, {"smiles": "C#CCOCC(CCl)OC(N)=O", "note": "(stereo not drawn)", "values": [{"measurement": "survivor count", "setting": "dose: 400.0 mg/kg/injection, schedule: Q01DX009 (ip), vehicle: saline with Tween-80", "value": "0 of 6"}, {"measurement": "survivor count", "setting": "[7]", "value": "1 of 7"}]}, {"smiles": "C=C(C)C#CCN(CCO)C(C)C", "values": [{"measurement": "survivor count", "setting": "[8]", "value": "2 of 6"}]}, {"smiles": "O=C(O)/C=C/c1c2ccc(=O)c(O)c-2oc2c(O)c(O)ccc12", "values": [{"measurement": "survivor count", "setting": "dose: 200.0 mg/kg/injection, schedule: Q04DX003 (ip), vehicle: other", "value": "1 of 6"}]}, {"smiles": "c1ccc(C(NC2CC3CCC2C3)c2ccccc2)cc1", "note": "(stereo not drawn)", "values": [{"measurement": "survivor count", "setting": "[9]", "value": "1 of 6"}]}, {"smiles": "COc1cc2ccc3ccncc3c2cc1OC", "values": [{"measurement": "survivor count", "setting": "dose: 100.0 mg/kg/injection, schedule: Q01DX009 (ip), vehicle: saline", "value": "2 of 6"}, {"measurement": "survivor count", "setting": "[4]", "value": "3 of 6"}, {"measurement": "survivor count", "setting": "[5]", "value": "2 of 6"}]}, {"smiles": "CNC(=O)Nc1ccc(OC)cc1Cl", "values": [{"measurement": "survivor count", "setting": "[10]", "value": "6 of 6"}]}, {"smiles": "CCN(C(=O)Nc1cccc(Cl)c1)c1ccccc1C", "values": [{"measurement": "survivor count", "setting": "[7]", "value": "6 of 6"}]}, {"smiles": "CN1CCN(CCNc2ccc(CO)c3sc4ccccc4c(=O)c23)CC1", "values": [{"measurement": "survivor count", "setting": "dose: 250.0 mg/kg/injection, schedule: Q01DX009 (ip), vehicle: Klucel (hydroxypropylcellulose) (HPC)", "value": "2 of 6"}]}, {"smiles": "CCC(C)(O)C#CC(C)(O)CC", "note": "(stereo not drawn)", "values": [{"measurement": "survivor count", "setting": "dose: 400.0 mg/kg/injection, schedule: Q01DX009 (ip), vehicle: saline", "value": "0 of 6"}]}, {"smiles": "COc1ccc(C(O)CCN2CCCCC2)cc1", "note": "(stereo not drawn)", "values": [{"measurement": "survivor count", "setting": "dose: 200.0 mg/kg/injection, schedule: Q01DX001 (ip), vehicle: saline with Tween-80", "value": "1 of 6"}, {"measurement": "survivor count", "setting": "dose: 400.0 mg/kg/injection, schedule: Q01DX001 (ip), vehicle: saline with Tween-80", "value": "1 of 6"}]}, {"smiles": "CC(C)=C1C2CCC1C1C(=O)OC(=O)C21", "note": "(stereo not drawn)", "values": [{"measurement": "survivor count", "setting": "[10]", "value": "4 of 6"}, {"measurement": "survivor count", "setting": "[9]", "value": "2 of 6"}]}, {"smiles": "CC(=O)OC(C)CC[P+](c1ccccc1)(c1ccccc1)c1ccccc1", "note": "(stereo not drawn)", "values": [{"measurement": "survivor count", "setting": "[8]", "value": "0 of 6"}]}, {"smiles": "c1ccc2c(c1)ccc1c2ccc2cccc[n+]21", "values": [{"measurement": "T/C", "setting": "dose: 7.0 mg/kg/injection, schedule: Q01DX015 (ip), vehicle: saline", "value": "125 % of control"}, {"measurement": "T/C", "setting": "dose: 10.0 mg/kg/injection, schedule: Q01DX015 (ip), vehicle: saline", "value": "125 % of control"}, {"measurement": "survivor count", "setting": "dose: 15.0 mg/kg/injection, schedule: Q01DX015 (ip), vehicle: saline", "value": "4 of 6"}, {"measurement": "survivor count", "setting": "dose: 50.0 mg/kg/injection, schedule: Q01DX001 (ip), vehicle: saline", "value": "0 of 6"}, {"measurement": "survivor count", "setting": "dose: 100.0 mg/kg/injection, schedule: Q01DX001 (ip), vehicle: saline", "value": "0 of 6"}, {"measurement": "survivor count", "setting": "[6]", "value": "0 of 6"}, {"measurement": "survivor count", "setting": "dose: 400.0 mg/kg/injection, schedule: Q01DX001 (ip), vehicle: saline", "value": "0 of 6"}]}]}
